Reference: publication PMC11895297
Results are given in words; binding and its absence hold for the method and conditions named. Binding seen in cells or lysates may run through a third protein.

By UniProt entry, the sequences of proteins in these tests, tags left out. Where a name states a change or a piece, a line headed by the entry shows the natural chain unless it says otherwise.
UniProt Q07869: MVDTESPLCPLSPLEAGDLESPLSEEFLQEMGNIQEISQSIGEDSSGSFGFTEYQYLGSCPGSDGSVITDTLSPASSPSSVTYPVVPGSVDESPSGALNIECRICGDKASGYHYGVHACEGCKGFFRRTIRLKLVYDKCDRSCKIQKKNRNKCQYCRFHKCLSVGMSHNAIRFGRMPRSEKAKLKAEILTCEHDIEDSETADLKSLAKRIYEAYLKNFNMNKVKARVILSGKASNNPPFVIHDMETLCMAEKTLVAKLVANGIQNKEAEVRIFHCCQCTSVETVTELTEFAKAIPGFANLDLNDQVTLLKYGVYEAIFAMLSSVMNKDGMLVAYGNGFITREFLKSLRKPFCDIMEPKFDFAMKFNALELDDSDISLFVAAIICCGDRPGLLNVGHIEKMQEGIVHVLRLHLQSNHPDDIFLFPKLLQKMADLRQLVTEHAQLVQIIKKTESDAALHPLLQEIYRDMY
UniProt O14980: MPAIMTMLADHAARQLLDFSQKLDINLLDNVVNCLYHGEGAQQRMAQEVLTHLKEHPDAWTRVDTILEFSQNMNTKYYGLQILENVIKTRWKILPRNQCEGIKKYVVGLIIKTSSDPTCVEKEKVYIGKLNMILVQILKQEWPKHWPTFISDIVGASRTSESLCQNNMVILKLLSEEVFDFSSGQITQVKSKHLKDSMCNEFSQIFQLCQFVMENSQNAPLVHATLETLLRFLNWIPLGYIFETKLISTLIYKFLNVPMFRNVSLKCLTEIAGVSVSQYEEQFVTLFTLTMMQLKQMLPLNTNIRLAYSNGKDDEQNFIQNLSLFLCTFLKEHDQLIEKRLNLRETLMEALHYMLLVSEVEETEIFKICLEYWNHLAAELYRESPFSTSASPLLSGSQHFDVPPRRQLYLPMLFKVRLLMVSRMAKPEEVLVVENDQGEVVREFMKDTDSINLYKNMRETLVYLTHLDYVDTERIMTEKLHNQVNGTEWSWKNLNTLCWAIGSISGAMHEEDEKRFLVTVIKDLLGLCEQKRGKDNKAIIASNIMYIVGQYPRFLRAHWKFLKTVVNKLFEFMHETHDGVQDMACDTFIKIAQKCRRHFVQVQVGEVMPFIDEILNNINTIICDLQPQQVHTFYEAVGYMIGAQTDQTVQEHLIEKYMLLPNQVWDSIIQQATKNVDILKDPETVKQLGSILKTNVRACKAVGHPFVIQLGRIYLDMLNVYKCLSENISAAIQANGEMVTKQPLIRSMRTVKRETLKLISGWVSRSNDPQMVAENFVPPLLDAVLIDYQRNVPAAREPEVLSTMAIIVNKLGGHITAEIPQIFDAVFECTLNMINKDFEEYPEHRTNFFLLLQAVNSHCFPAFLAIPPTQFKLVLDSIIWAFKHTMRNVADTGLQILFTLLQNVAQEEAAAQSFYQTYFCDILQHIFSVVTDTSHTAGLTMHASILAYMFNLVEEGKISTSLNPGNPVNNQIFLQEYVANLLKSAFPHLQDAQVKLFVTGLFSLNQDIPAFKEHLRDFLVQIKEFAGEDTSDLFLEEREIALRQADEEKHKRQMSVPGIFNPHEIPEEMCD

Target: PPARα-Flag with truncating mutation in the D domain (UniProt Q07869)
Assay: co-IP; HepG2 cells transfected with RAN-HA or PPARα-Flag constructs, 1 mg protein immunoprecipitated with Flag/HA-beads overnight, western blot

binding: no binding
Substance: Chromosome maintenance region 1 (endogenous) (from UniProt O14980 1-1071)
